Results deposited as PubChem BioAssay AID1259280 (Sanger Institute, 2017).

Aim: 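Essential kinases and drug-combination synergies in SNU407 cells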 (primary screen)
System: human SNU407 colorectal cancer cells
Knock-down reagent: siRNA pool against human genes
Challenge: anchor drugs BYL719 at 1 µM, cetuximab at 5 µg/ml or trametinib at 10 nM, or DMSO vehicle alone; exposure time not given
Measured: 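Viability per well scaled to a non-targeting pool and averaged over replicates, with a robust z-score from controls and a synergy score per anchor drug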
Reading the numbers: viability z-score, no drug and viability vs control, no drug: higher = more cells survive the knock-down; synergy with trametinib and synergy with BYL719 and synergy with cetuximab: higher = stronger synergy of knock-down with drug
Active means: 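Essential calls require a no-drug robust viability z-score under -3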
Calls: active = essential (knock-down alone kills cells); inactive = no change without drug
Here is one part, drawn at random, of 794 reagents tested. Of all reagents, 12 (1.5%) got an active call. 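Calls cover knock-down without drug only; synergy scores stand apart, values above 0.15 being treated as synergy.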 Viability is capped at 1. Reagent sequences are not shown. Not given: the amount of reagent, the time to read-out.

gene	PubChem SID	viability z-score, no drug	viability vs control, no drug (fraction of control)	synergy with trametinib	synergy with BYL719	synergy with cetuximab	Call
FN3K	SID56479098	0.901	1	0.0157	0.0803	-0.00841	inactive
PRKCI	SID152150879	0.901	1	0.101	0.0683	0.0613	inactive
TESK2	SID135620925	0.855	0.997	-0.101	-0.129	-0.0918	inactive
MAPK3	SID135620708	0.406	0.962	0.174	0.0415	0.133	inactive
PRKCB	SID56478724	-0.605	0.885	0.0155	0.00233	0.0802	inactive
WIPF1	SID152149422	-1.59	0.81	-0.0835	-0.0278	-0.0582	inactive
APC	SID152153239	-0.078	0.925	-0.0234	-0.0606	-0.048	inactive
GSK3B	SID56478468	0.901	1	-0.0268	0.022	-0.0783	inactive
PMVK	SID135621255	-0.0955	0.924	-0.0259	-0.114	-0.0779	inactive
OBSCN	SID56479016	-0.401	0.901	-0.0601	-0.061	-0.02	inactive
CDK13	SID152148828	0.901	1	0.016	0.0541	-0.00696	inactive
PKMYT1	SID56478956	-0.341	0.905	0.0485	-0.0553	-0.0174	inactive
FGR	SID135620620	0.562	0.974	0.00329	0.071	0.0349	inactive
TBK1	SID56478726	0.846	0.996	-0.00773	0.101	-0.034	inactive
DGKG	SID152147412	0.901	1	-0.126	-0.0173	-0.0279	inactive
SRPK1	SID56478751	0.554	0.974	-0.0294	0.0389	-0.0326	inactive
DGKA	SID152151940	0.67	0.982	0.0101	0.0891	0.0492	inactive
PIP5K1A	SID56478868	-1.28	0.833	-0.125	0.0349	-0.0565	inactive
PCBP1	SID134316528	-0.465	0.896	-0.123	-0.144	-0.138	inactive
NEK1	SID152155530	-0.26	0.911	0.0322	0.0558	-0.0662	inactive
AGK	SID56479172	-1.79	0.795	-0.179	-0.00764	-0.137	inactive
ZC3H11A	SID135624155	-1.21	0.838	-0.0376	-0.0257	-0.0721	inactive
TNIK	SID152153870	-2.12	0.769	-0.0518	-0.0755	-0.0743	inactive
CSNK2B	SID56479183	-0.476	0.895	0.0329	0.0127	-0.0381	inactive
PASK	SID56478950	-0.407	0.9	-0.0733	-0.0639	-0.0622	inactive
NUP62	SID135622326	0.901	1	0.0186	0.0915	0.17	inactive
CKMT2	SID152154085	0.371	0.96	-0.0411	0.0443	0.0941	inactive
PI4K2A	SID135621249	0.901	1	0.0353	0.0316	0.0272	inactive
ADCK5	SID56479281	-1.84	0.791	-0.104	0.0349	-0.0279	inactive
DCK	SID56479088	-1.85	0.79	-0.0535	-0.101	-0.0396	inactive
SCYL1	SID152146872	0.901	1	-0.0577	-0.105	-0.073	inactive
CSNK2A1	SID135620685	0.901	1	-0.0663	-0.0955	-0.0513	inactive
CAMK4	SID56478933	0.901	1	-0.0498	0.0372	0.0694	inactive
ANKK1	SID56478922	-0.472	0.895	-0.0515	0.0245	0.0612	inactive

A run of entries from the list above, as a working copy:
gene	PubChem SID	viability z-score, no drug	viability vs control, no drug (fraction of control)	synergy with trametinib	synergy with BYL719	synergy with cetuximab	Call
PASK	SID56478950	-0.407	0.9	-0.0733	-0.0639	-0.0622	inactive
NUP62	SID135622326	0.901	1	0.0186	0.0915	0.17	inactive
